Reference: PMC11993990
These are yes or no findings as the source states them, for the method shown. Binding seen in cells or lysates may run through a third protein. These calls come from enrichment with a bait or labelling near it, and not all partners need be listed. Sequences can lack the tags named with a protein.

Protein sequences, listed by entry. Tags and fused reporters are not part of them. Residues count along the entry.
UniProt P10852: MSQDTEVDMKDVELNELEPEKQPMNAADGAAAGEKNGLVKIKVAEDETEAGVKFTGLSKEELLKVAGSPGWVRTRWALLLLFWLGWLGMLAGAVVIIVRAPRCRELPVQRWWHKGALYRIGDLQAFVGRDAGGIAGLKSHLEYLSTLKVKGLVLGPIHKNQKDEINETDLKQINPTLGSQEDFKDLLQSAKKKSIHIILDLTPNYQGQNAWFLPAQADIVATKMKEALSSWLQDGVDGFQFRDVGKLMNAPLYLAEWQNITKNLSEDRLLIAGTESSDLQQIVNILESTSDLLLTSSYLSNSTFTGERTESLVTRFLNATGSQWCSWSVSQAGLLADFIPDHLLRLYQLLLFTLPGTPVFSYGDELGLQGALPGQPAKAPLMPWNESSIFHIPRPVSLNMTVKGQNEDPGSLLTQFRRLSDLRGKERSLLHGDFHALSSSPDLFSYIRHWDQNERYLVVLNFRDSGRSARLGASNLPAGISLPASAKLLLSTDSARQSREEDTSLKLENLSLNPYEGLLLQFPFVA
UniProt Q9Z127: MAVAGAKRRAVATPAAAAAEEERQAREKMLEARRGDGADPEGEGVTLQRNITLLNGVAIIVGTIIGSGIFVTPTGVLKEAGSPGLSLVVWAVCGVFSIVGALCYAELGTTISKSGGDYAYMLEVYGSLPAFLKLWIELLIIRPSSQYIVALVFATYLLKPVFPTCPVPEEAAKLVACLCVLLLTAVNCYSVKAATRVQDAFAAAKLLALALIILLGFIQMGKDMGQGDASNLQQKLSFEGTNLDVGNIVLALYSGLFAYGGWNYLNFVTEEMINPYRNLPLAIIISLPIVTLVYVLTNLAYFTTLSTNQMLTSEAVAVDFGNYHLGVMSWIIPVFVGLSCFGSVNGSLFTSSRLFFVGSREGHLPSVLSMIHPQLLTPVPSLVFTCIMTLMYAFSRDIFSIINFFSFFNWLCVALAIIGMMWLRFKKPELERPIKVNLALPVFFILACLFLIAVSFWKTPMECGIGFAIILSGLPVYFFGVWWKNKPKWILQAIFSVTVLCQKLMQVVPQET
UniProt P09055, residues 21-798: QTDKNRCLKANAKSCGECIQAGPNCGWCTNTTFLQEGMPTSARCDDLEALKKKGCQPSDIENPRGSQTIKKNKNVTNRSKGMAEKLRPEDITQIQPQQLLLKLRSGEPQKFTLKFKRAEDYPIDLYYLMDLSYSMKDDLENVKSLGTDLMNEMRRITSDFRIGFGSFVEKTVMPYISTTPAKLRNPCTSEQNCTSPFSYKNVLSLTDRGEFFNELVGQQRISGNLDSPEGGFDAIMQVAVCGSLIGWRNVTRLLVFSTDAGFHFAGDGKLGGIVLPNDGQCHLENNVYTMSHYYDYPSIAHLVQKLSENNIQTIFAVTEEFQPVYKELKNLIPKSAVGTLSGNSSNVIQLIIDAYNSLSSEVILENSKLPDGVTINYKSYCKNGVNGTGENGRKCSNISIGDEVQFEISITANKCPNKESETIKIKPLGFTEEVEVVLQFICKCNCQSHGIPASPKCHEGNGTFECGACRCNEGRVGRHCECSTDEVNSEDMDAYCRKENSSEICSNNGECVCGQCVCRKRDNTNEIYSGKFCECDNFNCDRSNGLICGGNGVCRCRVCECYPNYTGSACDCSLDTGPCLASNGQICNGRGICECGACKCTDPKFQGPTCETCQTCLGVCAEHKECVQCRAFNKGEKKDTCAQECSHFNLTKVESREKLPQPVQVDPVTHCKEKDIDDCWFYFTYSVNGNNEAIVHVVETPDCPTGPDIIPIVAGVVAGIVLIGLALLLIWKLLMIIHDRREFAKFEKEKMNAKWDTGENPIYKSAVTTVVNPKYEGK
UniProt P26231: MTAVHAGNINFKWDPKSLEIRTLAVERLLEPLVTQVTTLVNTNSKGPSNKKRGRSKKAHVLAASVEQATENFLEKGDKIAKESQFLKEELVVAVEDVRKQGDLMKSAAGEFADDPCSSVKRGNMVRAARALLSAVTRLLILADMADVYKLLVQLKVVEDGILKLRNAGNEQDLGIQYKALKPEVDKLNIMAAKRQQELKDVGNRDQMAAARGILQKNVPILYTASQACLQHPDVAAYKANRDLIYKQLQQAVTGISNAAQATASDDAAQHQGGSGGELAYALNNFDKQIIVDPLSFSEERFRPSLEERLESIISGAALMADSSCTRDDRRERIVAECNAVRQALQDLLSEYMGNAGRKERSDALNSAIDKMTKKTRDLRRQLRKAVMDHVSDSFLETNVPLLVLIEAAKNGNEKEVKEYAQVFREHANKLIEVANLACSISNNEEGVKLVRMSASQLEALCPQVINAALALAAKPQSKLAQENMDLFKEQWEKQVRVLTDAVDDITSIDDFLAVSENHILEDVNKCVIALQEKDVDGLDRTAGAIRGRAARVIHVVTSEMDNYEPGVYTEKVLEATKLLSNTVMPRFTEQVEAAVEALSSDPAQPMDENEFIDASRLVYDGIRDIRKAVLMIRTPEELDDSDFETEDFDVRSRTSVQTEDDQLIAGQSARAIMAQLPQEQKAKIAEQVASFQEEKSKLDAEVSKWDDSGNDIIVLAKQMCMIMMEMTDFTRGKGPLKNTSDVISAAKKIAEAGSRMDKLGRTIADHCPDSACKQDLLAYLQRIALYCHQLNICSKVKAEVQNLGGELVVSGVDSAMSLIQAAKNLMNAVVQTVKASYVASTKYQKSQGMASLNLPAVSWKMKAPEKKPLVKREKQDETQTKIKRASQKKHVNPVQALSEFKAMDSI
UniProt Q02248: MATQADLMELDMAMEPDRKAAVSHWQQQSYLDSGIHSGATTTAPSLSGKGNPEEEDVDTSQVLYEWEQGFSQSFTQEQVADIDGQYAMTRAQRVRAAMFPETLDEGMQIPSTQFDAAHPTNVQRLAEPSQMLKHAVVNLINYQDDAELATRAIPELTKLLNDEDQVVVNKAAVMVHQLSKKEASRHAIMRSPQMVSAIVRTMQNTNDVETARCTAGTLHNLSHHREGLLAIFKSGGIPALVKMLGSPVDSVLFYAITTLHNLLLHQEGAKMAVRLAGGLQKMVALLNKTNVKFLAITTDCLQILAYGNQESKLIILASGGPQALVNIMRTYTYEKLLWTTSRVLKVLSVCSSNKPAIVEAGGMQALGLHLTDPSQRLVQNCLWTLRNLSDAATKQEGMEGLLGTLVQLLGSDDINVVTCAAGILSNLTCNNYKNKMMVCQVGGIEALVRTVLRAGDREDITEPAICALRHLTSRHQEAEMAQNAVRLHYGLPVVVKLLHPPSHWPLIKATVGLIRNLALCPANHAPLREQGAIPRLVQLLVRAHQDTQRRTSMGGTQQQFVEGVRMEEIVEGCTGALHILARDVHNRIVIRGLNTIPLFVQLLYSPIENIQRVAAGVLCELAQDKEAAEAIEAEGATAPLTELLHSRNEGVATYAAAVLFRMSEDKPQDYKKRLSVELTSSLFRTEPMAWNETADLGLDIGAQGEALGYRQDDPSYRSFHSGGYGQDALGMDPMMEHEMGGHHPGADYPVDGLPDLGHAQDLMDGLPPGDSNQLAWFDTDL

biological target: T1, human wild-type R-RAS2 tagged at the N-terminus with a hemagglutinin (Hag) epitope, from the Rosa26-RRAS2fl/fl knock-in (human) (UniProt P62070); assay: affinity purification with mass spectrometry; cells of a freshly isolated Rosa26-RRAS2fl/fl x Wap-Cre breast tumor surface-biotinylated, lysed in 0.5% Brij96; co-IP with anti-Hag (12CA5) or isotype control, then Streptavidin Sepharose; in-gel trypsin digest, Orbitrap
T1 sequence: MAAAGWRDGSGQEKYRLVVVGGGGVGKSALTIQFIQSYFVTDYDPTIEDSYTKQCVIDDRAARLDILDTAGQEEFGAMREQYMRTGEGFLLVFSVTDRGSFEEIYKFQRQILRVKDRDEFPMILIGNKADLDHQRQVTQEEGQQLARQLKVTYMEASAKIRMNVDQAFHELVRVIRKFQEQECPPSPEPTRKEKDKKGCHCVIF

Molecule | binding
Ptk7, mouse (receptor, UniProt Q8BKG3 23-1062) AIVFIKEPSSQDALQGRRALLRCEVEAPDPVHVYWLLNGVPVQDTERRFAQGSSLSFAAVDRLQDSGAFQCVARDNVTGEEVRSTNASFNIKWIEAGPVVLKHPASEAEIQPQTQVTLRCHIDGHPRPTYQWFRDGTPLSDDQSTHTVSSRERNLTLRPASPEHSGLYSCCAHNAFGQACSSQNFTLSVADESFARVVLAPQDVVVARNEEAMFHCQFSAQPPPSLQWVFEDETPITNRSRPPHLRRAVVFANGSLLLTQVRPRNAGVYRCIGQGQRGPPIVLEATLHLAEIEDMLPFEPRVFIAGDEERVTCPAPQGLPTPSVWWEHAGVPLPAHGRVHQKGLELVFVTIAESDTGVYTCHASNLAGQRRQDVNITVATVPTWLRKPQDSQLEEGKPGYLHCLTQATPKPTVIWYRNQMLISEDSRFEVSKNGTLRINSVEVYDGTLYRCVSSTPAGSIEAQARVQVLEKLKFTPPPQPQQCMEFDKEATVPCSATGREKPTVKWVRADGSSLPEWVTDNAGTLHFARVTRDDAGNYTCIASNEPQGQIRAHVQLTVAVFITFKVEPERTTVYQGHTALLRCEAQGDPKPLIQWKGKDRILDPTKLGPRMHIFQNGSLVIHDVAPEDSGSYTCIAGNSCNIRHTEAPLLVVDKPVMEDSEGPGSPPPYKMIQTIGLSVGAAVAYIIAVLGLMFYCKKRCKAKRLQKQPEGEEPEMECLNGGPLQNGQPSAEIQEEVALTSLGSGPPATNKRHSAGDRMHFPRASLQPITTLGKSEFGEVFLAKAQGVEEGATETLVLVKSLQSRDEQQQLDFRREVEMFGKLNHANVVRLLGLCREAEPHYMVLEYVDLGDLKQFLRISKNKDEKLKSQPLSTKQKVALCSQVALGMEHLSNNRFVHKDLAARNCLISAQRQVKVSALGLSKDVYNSEYYHFRQAWVPLRWMSPEAVLEGDFSTKSDVWAFGVLMWEVFTHGEMPHGGQADDEVLADLQAGKARLPQPEGCPSKLYRLMQRCWAPNPKDRPSFSEIASTLGDSPADSKQ | binds
Epcam, mouse (protein, UniProt Q99JW5 24-315) QRDCVCDNYKLATSCSLNEYGECQCTSYGTQNTVICSKLASKCLAMKAEMTHSKSGRRIKPEGAIQNNDGLYDPDCDEQGLFKAKQCNGTATCWCVNTAGVRRTDKDTEITCSERVRTYWIIIELKHKERESPYDHQSLQTALQEAFTSRYKLNQKFIKNIMYENNVITIDLMQNSSQKTQDDVDIADVAYYFEKDVKGESLFHSSKSMDLRVNGEPLDLDPGQTLIYYVDEKAPEFSMQGLTAGIIAVIVVVSLAVIAGIVVLVISTRKKSAKYEKAEIKEMGEIHRELNA | binds
GLUT1 (Slc2a1), mouse (protein, UniProt P17809 1-492) MDPSSKKVTGRLMLAVGGAVLGSLQFGYNTGVINAPQKVIEEFYNQTWNHRYGEPIPSTTLTTLWSLSVAIFSVGGMIGSFSVGLFVNRFGRRNSMLMMNLLAFVAAVLMGFSKLGKSFEMLILGRFIIGVYCGLTTGFVPMYVGEVSPTALRGALGTLHQLGIVVGILIAQVFGLDSIMGNADLWPLLLSVIFIPALLQCILLPFCPESPRFLLINRNEENRAKSVLKKLRGTADVTRDLQEMKEEGRQMMREKKVTILELFRSPAYRQPILIAVVLQLSQQLSGINAVFYYSTSIFEKAGVQQPVYATIGSGIVNTAFTVVSLFVVERAGRRTLHLIGLAGMAGCAVLMTIALALLERLPWMSYLSIVAIFGFVAFFEVGPGPIPWFIVAELFSQGPRPAAIAVAGFSNWTSNFIVGMCFQYVEQLCGPYVFIIFTVLLVLFFIFTYFKVPETKGRTFDEIASGFRQGGASQSDKTPEELFHPLGADSQV | binds

biological target: T1, human wild-type R-RAS2 tagged at the N-terminus with a hemagglutinin (Hag) epitope, from the Rosa26-RRAS2fl/fl knock-in (human); assay: as above; remark: another data set of the same source

Molecule | binding
CD98 heavy chain (Slc3a2), mouse (from UniProt P10852 1-526) | binds
LAT1 (Slc7a5), mouse (from UniProt Q9Z127 1-512) | binds
integrin-β1 (itgb1), mouse (from UniProt P09055 21-798) (receptor) | binds
α-catenin (Ctnna1), mouse (from UniProt P26231 1-906) | binds
β-catenin (Ctnnb1), mouse (from UniProt Q02248 1-781) | binds
